This note sets out measurements from paper PMC7228994.

Amino acid sequences for entries named in this document (tags omitted).
UniProt P19447: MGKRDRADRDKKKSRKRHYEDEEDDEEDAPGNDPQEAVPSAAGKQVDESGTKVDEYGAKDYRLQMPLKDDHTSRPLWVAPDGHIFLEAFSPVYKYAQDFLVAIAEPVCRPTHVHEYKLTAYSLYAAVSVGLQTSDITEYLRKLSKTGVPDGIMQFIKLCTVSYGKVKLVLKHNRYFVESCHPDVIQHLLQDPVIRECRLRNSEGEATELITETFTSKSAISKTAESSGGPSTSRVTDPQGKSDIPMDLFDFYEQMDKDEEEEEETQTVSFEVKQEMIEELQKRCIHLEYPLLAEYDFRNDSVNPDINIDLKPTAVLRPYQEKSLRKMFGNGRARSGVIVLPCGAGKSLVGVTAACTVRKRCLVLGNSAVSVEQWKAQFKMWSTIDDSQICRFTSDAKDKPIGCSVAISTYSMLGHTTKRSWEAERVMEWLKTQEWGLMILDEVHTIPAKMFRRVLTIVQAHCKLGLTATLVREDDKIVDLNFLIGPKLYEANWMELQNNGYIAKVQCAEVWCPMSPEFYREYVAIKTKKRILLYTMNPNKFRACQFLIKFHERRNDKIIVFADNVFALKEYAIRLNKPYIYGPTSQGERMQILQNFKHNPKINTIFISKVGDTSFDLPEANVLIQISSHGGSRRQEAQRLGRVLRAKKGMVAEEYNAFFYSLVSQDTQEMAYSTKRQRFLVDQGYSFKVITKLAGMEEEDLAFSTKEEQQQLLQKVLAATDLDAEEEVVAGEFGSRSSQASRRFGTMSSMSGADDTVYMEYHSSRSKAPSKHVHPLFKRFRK
UniProt Q8IY92: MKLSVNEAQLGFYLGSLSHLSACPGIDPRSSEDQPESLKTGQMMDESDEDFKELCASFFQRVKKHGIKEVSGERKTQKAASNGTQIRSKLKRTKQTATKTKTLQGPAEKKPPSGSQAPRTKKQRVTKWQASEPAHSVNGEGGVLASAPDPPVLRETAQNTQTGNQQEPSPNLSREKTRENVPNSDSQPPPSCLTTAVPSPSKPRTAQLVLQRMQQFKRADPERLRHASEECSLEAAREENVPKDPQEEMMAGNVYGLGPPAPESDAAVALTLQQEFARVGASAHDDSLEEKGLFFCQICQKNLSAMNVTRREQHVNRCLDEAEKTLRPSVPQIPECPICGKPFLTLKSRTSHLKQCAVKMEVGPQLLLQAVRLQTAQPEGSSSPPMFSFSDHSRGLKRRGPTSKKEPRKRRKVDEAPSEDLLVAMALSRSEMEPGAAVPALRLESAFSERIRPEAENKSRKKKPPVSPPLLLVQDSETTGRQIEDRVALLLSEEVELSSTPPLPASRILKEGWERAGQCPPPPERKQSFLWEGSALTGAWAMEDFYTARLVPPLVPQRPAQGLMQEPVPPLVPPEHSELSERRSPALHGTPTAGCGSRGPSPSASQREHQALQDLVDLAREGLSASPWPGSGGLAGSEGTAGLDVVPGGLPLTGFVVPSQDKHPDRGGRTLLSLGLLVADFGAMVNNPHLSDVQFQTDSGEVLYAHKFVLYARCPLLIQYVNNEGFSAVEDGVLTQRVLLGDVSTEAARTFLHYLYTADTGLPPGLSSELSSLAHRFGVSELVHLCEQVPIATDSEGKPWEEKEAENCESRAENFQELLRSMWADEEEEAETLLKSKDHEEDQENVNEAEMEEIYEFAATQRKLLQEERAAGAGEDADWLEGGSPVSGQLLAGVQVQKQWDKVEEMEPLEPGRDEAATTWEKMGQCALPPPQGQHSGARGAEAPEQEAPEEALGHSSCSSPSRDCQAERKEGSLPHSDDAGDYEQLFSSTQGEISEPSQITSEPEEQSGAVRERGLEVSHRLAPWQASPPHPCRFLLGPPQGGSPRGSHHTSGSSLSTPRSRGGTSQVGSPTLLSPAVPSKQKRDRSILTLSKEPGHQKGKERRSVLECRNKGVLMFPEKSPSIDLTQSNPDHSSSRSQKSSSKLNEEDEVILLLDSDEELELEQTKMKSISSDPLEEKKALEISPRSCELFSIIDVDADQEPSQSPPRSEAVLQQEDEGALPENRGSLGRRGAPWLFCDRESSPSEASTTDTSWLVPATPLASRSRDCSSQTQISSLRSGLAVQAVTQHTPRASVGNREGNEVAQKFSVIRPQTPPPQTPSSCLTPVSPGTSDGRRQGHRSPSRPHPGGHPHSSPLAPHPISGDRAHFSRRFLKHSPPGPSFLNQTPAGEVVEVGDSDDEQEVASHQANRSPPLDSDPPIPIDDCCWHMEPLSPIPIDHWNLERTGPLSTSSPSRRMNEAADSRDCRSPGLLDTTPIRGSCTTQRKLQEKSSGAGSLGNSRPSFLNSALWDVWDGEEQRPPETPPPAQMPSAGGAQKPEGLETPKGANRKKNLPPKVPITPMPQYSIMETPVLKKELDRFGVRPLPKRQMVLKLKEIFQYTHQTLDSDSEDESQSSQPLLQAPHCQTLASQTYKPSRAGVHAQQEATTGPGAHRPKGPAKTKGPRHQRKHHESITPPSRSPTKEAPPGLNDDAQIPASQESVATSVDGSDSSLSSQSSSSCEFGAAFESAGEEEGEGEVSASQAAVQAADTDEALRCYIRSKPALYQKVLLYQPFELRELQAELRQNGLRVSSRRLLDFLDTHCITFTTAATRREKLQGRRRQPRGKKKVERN
UniProt P32780: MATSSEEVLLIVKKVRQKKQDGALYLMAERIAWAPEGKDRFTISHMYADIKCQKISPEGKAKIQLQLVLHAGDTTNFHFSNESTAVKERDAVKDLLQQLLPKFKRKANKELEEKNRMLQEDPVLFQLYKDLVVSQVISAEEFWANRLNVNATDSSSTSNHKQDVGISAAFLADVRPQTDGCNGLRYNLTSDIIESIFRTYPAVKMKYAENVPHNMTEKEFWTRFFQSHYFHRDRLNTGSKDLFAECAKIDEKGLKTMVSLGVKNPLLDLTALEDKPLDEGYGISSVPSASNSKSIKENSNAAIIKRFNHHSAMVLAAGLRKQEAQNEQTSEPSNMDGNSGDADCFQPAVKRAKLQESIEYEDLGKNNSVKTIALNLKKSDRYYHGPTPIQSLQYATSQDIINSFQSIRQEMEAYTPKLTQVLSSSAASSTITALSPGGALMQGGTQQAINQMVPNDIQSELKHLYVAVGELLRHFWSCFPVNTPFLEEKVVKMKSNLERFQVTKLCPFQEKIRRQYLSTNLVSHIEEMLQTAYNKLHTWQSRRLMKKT

The target in the assay is T1, ERCC1–GFP (human) (UniProt P07992).
T1 sequence: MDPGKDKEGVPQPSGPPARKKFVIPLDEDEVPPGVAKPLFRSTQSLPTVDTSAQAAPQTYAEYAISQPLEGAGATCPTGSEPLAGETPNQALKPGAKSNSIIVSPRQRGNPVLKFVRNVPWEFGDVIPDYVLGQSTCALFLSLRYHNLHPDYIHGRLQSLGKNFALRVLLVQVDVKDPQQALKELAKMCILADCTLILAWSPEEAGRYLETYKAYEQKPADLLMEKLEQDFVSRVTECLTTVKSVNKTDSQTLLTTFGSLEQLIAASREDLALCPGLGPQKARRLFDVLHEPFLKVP
Kind of assay: affinity purification with mass spectrometry; GFP-Trap_A beads on MNase-digested chromatin-enriched nuclear extracts of SILAC-labelled U2OS ERCC1–GFP cells, mock-treated or 1 h after 20 J/m^2 UVC; forward and reverse (label swap) experiments.

No constants are given. Whether binding was seen depends on the method and setting. Binding seen in cells or lysates may run through a third protein. A yes stands for co-enrichment or nearness to the bait. Other partners may have been found. Where a sequence is shown, tags or fusion partners need not be part of it.

Regarding XPB/ERCC3 (from UniProt P19447 1-782), the binding entry was “binds”.
SLX4 (from UniProt Q8IY92 1-1834): the binding entry is “binds”.
Turning to p62/GTF2H1 (from UniProt P32780 1-548), the binding entry is on record as “binds”.

B1: p34/GTF2H3 (protein, UniProt Q13889 1-308)
chain: MVSDEDELNLLVIVVDANPIWWGKQALKESQFTLSKCIDAVMVLGNSHLFMNRSNKLAVIASHIQESRFLYPGKNGRLGDFFGDPGNPPEFNPSGSKDGKYELLTSANEVIVEEIKDLMTKSDIKGQHTETLLAGSLAKALCYIHRMNKEVKDNQEMKSRILVIKAAEDSALQYMNFMNVIFAAQKQNILIDACVLDSDSGLLQQACDITGGLYLKVPQMPSLLQYLLWVFLPDQDQRSQLILPPPVHVDYRAACFCHRNLIEIGYVCSVCLSIFCNFSPICTTCETAFKISLPPVLKAKKKKLKVSA
Consider B1, for which the binding result is on record as “binds”.

B2: p44/GTF2H2 (protein, UniProt Q13888 1-395)
chain: MDEEPERTKRWEGGYERTWEILKEDESGSLKATIEDILFKAKRKRVFEHHGQVRLGMMRHLYVVVDGSRTMEDQDLKPNRLTCTLKLLEYFVEEYFDQNPISQIGIIVTKSKRAEKLTELSGNPRKHITSLKKAVDMTCHGEPSLYNSLSIAMQTLKHMPGHTSREVLIIFSSLTTCDPSNIYDLIKTLKAAKIRVSVIGLSAEVRVCTVLARETGGTYHVILDESHYKELLTHHVSPPPASSSSECSLIRMGFPQHTIASLSDQDAKPSFSMAHLDGNTEPGLTLGGYFCPQCRAKYCELPVECKICGLTLVSAPHLARSYHHLFPLDAFQEIPLEEYNGERFCYGCQGELKDQHVYVCAVCQNVFCVDCDVFVHDSLHCCPGCIHKIPAPSGV
As for B2, the binding entry was “binds”.

B3: XPG/ERCC5 (protein, UniProt P28715 1-1186)
chain: MGVQGLWKLLECSGRQVSPEALEGKILAVDISIWLNQALKGVRDRHGNSIENPHLLTLFHRLCKLLFFRIRPIFVFDGDAPLLKKQTLVKRRQRKDLASSDSRKTTEKLLKTFLKRQAIKTAFRSKRDEALPSLTQVRRENDLYVLPPLQEEEKHSSEEEDEKEWQERMNQKQALQEEFFHNPQAIDIESEDFSSLPPEVKHEILTDMKEFTKRRRTLFEAMPEESDDFSQYQLKGLLKKNYLNQHIEHVQKEMNQQHSGHIRRQYEDEGGFLKEVESRRVVSEDTSHYILIKGIQAKTVAEVDSESLPSSSKMHGMSFDVKSSPCEKLKTEKEPDATPPSPRTLLAMQAALLGSSSEEELESENRRQARGRNAPAAVDEGSISPRTLSAIKRALDDDEDVKVCAGDDVQTGGPGAEEMRINSSTENSDEGLKVRDGKGIPFTATLASSSVNSAEEHVASTNEGREPTDSVPKEQMSLVHVGTEAFPISDESMIKDRKDRLPLESAVVRHSDAPGLPNGRELTPASPTCTNSVSKNETHAEVLEQQNELCPYESKFDSSLLSSDDETKCKPNSASEVIGPVSLQETSSIVSVPSEAVDNVENVVSFNAKEHENFLETIQEQQTTESAGQDLISIPKAVEPMEIDSEESESDGSFIEVQSVISDEELQAEFPETSKPPSEQGEEELVGTREGEAPAESESLLRDNSERDDVDGEPQEAEKDAEDSLHEWQDINLEELETLESNLLAQQNSLKAQKQQQERIAATVTGQMFLESQELLRLFGIPYIQAPMEAEAQCAILDLTDQTSGTITDDSDIWLFGARHVYRNFFNKNKFVEYYQYVDFHNQLGLDRNKLINLAYLLGSDYTEGIPTVGCVTAMEILNEFPGHGLEPLLKFSEWWHEAQKNPKIRPNPHDTKVKKKLRTLQLTPGFPNPAVAEAYLKPVVDDSKGSFLWGKPDLDKIREFCQRYFGWNRTKTDESLFPVLKQLDAQQTQLRIDSFFRLAQQEKEDAKRIKSQRLNRAVTCMLRKEKEAAASEIEAVSVAMEKEFELLDKAKGKTQKRGITNTLEESSSLKRKRLSDSKGKNTCGGFLGETCLSESSDGSSSEDAESSSLMNVQRRTAAKEPKTSASDSQNSVKEAPVKNGGATTSSSSDSDDDGGKEKMVLVTARSVFGKKRRKLRRARGRKRKT
B3: the binding result was “binds”.

B4: p52/GTF2H4 (protein, UniProt Q92759 1-462)
chain: MESTPSRGLNRVHLQCRNLQEFLGGLSPGVLDRLYGHPATCLAVFRELPSLAKNWVMRMLFLEQPLPQAAVALWVKKEFSKAQEESTGLLSGLRIWHTQLLPGGLQGLILNPIFRQNLRIALLGGGKAWSDDTSQLGPDKHARDVPSLDKYAEERWEVVLHFMVGSPSAAVSQDLAQLLSQAGLMKSTEPGEPPCITSAGFQFLLLDTPAQLWYFMLQYLQTAQSRGMDLVEILSFLFQLSFSTLGKDYSVEGMSDSLLNFLQHLREFGLVFQRKRKSRRYYPTRLAINLSSGVSGAGGTVHQPGFIVVETNYRLYAYTESELQIALIALFSEMLYRFPNMVVAQVTRESVQQAIASGITAQQIIHFLRTRAHPVMLKQTPVLPPTITDQIRLWELERDRLRFTEGVLYNQFLSQVDFELLLAHARELGVLVFENSAKRLMVVTPAGHSDVKRFWKRQKHSS
B4: the binding entry is “binds”.
